According to article PMC5871684:

Target: T1, TOPLESS (TPL) fused with GAL4 DNA binding domain (Arabidopsis thaliana) (UniProt Q94AI7)
T1 sequence: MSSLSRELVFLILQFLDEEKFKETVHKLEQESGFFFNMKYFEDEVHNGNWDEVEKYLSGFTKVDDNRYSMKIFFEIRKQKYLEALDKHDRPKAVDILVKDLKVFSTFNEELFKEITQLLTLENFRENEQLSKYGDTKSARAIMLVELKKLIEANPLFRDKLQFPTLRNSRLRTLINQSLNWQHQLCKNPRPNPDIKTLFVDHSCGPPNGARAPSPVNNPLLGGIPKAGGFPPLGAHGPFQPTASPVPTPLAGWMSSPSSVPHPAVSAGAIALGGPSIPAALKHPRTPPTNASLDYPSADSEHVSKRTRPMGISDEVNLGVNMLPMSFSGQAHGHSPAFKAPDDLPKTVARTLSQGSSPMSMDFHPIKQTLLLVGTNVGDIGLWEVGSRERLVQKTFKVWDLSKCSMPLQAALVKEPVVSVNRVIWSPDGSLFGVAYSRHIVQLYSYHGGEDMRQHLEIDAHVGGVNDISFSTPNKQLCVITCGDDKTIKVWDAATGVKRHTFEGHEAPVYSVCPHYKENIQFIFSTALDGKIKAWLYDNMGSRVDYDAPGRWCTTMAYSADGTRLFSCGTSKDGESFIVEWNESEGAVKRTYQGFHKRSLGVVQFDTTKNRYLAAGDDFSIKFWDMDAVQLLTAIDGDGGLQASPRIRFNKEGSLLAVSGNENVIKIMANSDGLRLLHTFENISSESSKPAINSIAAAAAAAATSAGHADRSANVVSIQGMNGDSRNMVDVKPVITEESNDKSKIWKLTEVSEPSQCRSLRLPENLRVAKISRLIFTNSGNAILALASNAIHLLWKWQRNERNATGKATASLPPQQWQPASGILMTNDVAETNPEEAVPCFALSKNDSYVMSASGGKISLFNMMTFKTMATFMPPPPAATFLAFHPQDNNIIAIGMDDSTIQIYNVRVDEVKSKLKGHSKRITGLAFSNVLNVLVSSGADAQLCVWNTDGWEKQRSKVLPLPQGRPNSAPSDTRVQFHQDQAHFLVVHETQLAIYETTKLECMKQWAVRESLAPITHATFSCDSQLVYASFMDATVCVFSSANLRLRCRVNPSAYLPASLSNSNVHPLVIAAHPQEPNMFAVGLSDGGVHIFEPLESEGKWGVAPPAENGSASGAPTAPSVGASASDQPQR
Assay: two-hybrid; Matchmaker system, yeast AH109, co-transformation; TPL fused with GAL4-BD, ARF2 full length, domains or mutated MDs fused with GAL4-AD; serial 1:10 dilutions on SD2-, SD3- (0.2-0.5 mM 3-amino-triazole) or SD4-, 30°C, growth observed 4-10 days after plating

Substance	binding
ARF2 middle domain with the EAR motif mutation (MDma) fused with GAL4 activation domain (Arabidopsis thaliana) (domain or fragment)	binds
ARF2 middle domain with the RLFGI motif mutation (MDmb) fused with GAL4 activation domain (Arabidopsis thaliana) (domain or fragment)	no binding

These are yes or no findings as the source states them, for the method shown. Binding calls can cover weak binding; strength is not graded here. Where a sequence is shown, tags or fusion partners need not be part of it.
